For six molecules, binding results are on record in article PMC5864832.

Chains of the proteins cited; added tags and fusions are not shown.
UniProt P50613: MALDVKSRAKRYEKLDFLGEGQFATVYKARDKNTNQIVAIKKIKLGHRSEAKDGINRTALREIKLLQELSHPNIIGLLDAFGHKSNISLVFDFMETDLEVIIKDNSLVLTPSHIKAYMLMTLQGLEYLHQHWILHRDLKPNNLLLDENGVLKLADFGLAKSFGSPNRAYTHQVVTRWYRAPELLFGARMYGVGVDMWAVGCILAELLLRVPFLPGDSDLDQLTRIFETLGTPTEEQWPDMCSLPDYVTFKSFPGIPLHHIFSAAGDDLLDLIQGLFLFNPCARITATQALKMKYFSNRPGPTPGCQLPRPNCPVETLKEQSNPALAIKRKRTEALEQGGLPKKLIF
UniProt P25786: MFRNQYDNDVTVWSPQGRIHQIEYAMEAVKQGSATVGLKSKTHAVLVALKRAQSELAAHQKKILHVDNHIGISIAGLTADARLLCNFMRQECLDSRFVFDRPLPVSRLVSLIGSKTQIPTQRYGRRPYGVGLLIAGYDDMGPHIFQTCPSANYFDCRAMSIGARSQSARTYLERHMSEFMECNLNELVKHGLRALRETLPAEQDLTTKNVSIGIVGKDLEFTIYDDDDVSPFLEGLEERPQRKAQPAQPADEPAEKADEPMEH
UniProt O43795: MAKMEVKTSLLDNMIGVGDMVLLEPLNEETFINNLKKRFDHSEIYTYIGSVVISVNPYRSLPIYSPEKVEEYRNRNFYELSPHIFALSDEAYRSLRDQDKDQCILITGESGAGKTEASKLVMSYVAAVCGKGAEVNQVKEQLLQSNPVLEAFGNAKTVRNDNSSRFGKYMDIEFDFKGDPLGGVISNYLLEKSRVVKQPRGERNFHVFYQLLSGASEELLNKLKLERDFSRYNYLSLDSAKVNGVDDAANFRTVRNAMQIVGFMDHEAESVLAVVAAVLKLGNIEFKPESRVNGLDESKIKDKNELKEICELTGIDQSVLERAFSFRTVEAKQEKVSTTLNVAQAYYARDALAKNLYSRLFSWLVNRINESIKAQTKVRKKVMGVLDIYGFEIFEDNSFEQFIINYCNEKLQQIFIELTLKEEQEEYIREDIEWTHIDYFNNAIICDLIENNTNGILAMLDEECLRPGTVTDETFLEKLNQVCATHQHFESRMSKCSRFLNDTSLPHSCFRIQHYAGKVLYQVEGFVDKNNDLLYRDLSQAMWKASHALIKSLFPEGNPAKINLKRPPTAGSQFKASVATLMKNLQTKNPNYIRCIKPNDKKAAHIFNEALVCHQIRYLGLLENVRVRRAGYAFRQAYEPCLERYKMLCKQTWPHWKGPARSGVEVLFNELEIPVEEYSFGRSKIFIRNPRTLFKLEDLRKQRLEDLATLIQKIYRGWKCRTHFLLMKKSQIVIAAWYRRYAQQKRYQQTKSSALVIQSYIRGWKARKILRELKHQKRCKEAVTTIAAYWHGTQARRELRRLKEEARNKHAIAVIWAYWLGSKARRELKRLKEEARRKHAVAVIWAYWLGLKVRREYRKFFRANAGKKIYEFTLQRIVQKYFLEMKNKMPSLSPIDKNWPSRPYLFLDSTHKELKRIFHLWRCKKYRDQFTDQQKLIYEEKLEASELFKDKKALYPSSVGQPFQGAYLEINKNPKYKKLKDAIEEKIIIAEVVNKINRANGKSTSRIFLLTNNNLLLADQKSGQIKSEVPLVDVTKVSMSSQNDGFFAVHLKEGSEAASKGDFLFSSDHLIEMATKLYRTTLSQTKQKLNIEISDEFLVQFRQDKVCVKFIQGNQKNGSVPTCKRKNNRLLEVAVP
UniProt P35580: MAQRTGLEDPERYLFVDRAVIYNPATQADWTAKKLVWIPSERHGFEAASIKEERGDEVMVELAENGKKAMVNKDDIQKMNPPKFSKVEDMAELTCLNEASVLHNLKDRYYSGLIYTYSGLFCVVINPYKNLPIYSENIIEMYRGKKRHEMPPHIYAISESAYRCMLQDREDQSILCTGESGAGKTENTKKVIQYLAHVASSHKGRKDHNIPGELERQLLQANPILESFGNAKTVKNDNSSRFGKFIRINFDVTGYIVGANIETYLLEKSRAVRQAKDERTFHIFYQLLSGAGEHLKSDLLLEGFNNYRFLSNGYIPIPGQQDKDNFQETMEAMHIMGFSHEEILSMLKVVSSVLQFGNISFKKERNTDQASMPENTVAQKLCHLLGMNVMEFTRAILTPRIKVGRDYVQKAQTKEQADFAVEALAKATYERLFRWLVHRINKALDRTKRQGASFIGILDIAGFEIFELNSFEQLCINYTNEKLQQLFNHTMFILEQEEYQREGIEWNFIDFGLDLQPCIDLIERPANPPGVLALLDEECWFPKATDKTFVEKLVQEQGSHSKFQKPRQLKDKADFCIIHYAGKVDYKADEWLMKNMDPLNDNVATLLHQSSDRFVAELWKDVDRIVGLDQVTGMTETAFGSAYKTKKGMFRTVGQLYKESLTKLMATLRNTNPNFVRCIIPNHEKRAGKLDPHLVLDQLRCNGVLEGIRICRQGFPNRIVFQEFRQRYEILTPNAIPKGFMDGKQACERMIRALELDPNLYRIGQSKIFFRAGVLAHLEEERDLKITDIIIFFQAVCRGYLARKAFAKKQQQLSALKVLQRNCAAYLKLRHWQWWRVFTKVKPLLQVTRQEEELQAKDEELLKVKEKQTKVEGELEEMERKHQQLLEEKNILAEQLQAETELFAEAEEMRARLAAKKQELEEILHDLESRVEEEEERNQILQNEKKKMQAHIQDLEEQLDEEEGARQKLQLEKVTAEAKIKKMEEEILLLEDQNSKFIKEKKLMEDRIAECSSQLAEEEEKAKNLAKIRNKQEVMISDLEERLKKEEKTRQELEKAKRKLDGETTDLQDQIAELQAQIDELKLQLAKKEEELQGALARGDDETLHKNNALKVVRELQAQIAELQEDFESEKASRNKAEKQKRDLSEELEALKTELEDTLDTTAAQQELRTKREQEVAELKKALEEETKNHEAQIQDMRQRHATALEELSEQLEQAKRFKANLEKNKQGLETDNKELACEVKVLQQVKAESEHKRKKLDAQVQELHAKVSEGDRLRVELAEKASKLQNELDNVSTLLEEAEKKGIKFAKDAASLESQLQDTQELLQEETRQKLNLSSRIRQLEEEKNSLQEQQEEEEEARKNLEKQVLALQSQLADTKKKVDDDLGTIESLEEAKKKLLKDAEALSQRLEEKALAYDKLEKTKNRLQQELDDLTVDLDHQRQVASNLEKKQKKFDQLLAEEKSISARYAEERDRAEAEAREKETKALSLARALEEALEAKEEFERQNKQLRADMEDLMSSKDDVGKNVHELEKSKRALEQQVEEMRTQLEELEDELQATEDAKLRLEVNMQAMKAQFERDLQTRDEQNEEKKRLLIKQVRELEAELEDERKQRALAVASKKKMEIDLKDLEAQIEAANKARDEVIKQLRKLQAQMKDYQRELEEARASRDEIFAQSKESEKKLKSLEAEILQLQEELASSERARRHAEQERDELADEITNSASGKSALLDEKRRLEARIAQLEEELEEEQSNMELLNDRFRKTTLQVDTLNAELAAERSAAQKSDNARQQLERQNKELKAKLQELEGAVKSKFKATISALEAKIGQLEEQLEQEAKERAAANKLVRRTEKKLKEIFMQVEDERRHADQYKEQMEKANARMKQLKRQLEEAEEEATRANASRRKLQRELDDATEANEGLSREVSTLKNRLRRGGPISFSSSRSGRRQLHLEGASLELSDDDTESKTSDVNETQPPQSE
UniProt Q7Z406: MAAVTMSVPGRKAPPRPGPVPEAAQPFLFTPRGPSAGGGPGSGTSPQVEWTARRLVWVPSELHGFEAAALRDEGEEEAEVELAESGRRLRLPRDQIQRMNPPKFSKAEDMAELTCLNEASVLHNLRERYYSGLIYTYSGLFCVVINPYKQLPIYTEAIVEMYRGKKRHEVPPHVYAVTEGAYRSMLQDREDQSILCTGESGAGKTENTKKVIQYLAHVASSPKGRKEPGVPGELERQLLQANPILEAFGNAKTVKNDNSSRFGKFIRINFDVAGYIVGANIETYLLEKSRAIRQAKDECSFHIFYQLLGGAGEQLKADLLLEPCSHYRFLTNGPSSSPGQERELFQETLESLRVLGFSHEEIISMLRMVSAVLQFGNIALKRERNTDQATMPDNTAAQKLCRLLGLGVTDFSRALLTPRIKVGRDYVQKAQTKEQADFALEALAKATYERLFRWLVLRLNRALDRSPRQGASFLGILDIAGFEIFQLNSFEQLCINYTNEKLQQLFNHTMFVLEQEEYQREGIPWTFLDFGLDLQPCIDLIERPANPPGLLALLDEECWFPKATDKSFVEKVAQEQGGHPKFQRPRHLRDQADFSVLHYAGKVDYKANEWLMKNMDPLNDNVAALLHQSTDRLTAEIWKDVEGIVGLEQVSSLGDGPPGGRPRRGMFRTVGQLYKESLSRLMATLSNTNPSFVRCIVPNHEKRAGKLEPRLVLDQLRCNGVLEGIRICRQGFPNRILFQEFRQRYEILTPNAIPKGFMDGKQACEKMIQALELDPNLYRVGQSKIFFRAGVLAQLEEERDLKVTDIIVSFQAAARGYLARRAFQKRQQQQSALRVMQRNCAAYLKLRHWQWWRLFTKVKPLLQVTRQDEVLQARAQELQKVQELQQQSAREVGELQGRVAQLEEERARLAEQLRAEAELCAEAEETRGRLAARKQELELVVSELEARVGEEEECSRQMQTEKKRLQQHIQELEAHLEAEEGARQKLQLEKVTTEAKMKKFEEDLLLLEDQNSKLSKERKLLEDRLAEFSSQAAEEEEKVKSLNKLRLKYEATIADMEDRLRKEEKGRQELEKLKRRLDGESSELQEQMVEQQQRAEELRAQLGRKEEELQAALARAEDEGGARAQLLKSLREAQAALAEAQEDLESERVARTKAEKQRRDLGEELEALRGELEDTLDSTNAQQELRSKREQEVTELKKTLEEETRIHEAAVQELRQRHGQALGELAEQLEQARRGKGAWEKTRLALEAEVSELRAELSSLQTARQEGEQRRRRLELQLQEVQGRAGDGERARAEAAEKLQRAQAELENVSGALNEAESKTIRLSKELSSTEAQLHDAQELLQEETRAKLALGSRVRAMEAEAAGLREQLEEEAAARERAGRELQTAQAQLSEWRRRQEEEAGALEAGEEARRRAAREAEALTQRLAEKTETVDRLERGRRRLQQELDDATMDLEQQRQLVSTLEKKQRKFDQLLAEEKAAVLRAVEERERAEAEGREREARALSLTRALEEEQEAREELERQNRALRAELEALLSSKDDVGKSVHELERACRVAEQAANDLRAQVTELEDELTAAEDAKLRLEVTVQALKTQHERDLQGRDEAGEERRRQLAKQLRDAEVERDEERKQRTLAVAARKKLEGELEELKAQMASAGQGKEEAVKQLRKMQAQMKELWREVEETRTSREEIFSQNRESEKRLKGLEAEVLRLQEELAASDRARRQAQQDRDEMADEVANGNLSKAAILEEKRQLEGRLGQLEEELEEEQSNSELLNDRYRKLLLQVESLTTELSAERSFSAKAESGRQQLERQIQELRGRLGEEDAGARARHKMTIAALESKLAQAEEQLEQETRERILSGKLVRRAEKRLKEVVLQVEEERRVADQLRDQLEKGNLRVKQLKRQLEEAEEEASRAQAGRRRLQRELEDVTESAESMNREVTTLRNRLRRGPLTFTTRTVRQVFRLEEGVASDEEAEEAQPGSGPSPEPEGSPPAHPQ

To fix the notation:
B1: ERCC5 (protein, UniProt P28715 1-1186)
chain: MGVQGLWKLLECSGRQVSPEALEGKILAVDISIWLNQALKGVRDRHGNSIENPHLLTLFHRLCKLLFFRIRPIFVFDGDAPLLKKQTLVKRRQRKDLASSDSRKTTEKLLKTFLKRQAIKTAFRSKRDEALPSLTQVRRENDLYVLPPLQEEEKHSSEEEDEKEWQERMNQKQALQEEFFHNPQAIDIESEDFSSLPPEVKHEILTDMKEFTKRRRTLFEAMPEESDDFSQYQLKGLLKKNYLNQHIEHVQKEMNQQHSGHIRRQYEDEGGFLKEVESRRVVSEDTSHYILIKGIQAKTVAEVDSESLPSSSKMHGMSFDVKSSPCEKLKTEKEPDATPPSPRTLLAMQAALLGSSSEEELESENRRQARGRNAPAAVDEGSISPRTLSAIKRALDDDEDVKVCAGDDVQTGGPGAEEMRINSSTENSDEGLKVRDGKGIPFTATLASSSVNSAEEHVASTNEGREPTDSVPKEQMSLVHVGTEAFPISDESMIKDRKDRLPLESAVVRHSDAPGLPNGRELTPASPTCTNSVSKNETHAEVLEQQNELCPYESKFDSSLLSSDDETKCKPNSASEVIGPVSLQETSSIVSVPSEAVDNVENVVSFNAKEHENFLETIQEQQTTESAGQDLISIPKAVEPMEIDSEESESDGSFIEVQSVISDEELQAEFPETSKPPSEQGEEELVGTREGEAPAESESLLRDNSERDDVDGEPQEAEKDAEDSLHEWQDINLEELETLESNLLAQQNSLKAQKQQQERIAATVTGQMFLESQELLRLFGIPYIQAPMEAEAQCAILDLTDQTSGTITDDSDIWLFGARHVYRNFFNKNKFVEYYQYVDFHNQLGLDRNKLINLAYLLGSDYTEGIPTVGCVTAMEILNEFPGHGLEPLLKFSEWWHEAQKNPKIRPNPHDTKVKKKLRTLQLTPGFPNPAVAEAYLKPVVDDSKGSFLWGKPDLDKIREFCQRYFGWNRTKTDESLFPVLKQLDAQQTQLRIDSFFRLAQQEKEDAKRIKSQRLNRAVTCMLRKEKEAAASEIEAVSVAMEKEFELLDKAKGKTQKRGITNTLEESSSLKRKRLSDSKGKNTCGGFLGETCLSESSDGSSSEDAESSSLMNVQRRTAAKEPKTSASDSQNSVKEAPVKNGGATTSSSSDSDDDGGKEKMVLVTARSVFGKKRRKLRRARGRKRKT
B2: MYO1D (protein, UniProt O94832 1-1006)
chain: MAEQESLEFGKADFVLMDTVSMPEFMANLRLRFEKGRIYTFIGEVVVSVNPYKLLNIYGRDTIEQYKGRELYERPPHLFAIADAAYKAMKRRSKDTCIVISGESGAGKTEASKYIMQYIAAITNPSQRAEVERVKNMLLKSNCVLEAFGNAKTNRNDNSSRFGKYMDINFDFKGDPIGGHINNYLLEKSRVIVQQPGERSFHSFYQLLQGGSEQMLRSLHLQKSLSSYNYIHVGAQLKSSINDAAEFRVVADAMKVIGFKPEEIQTVYKILAAILHLGNLKFVVDGDTPLIENGKVVSIIAELLSTKTDMVEKALLYRTVATGRDIIDKQHTEQEASYGRDAFAKAIYERLFCWIVTRINDIIEVKNYDTTIHGKNTVIGVLDIYGFEIFDNNSFEQFCINYCNEKLQQLFIQLVLKQEQEEYQREGIPWKHIDYFNNQIIVDLVEQQHKGIIAILDDACMNVGKVTDEMFLEALNSKLGKHAHFSSRKLCASDKILEFDRDFRIRHYAGDVVYSVIGFIDKNKDTLFQDFKRLMYNSSNPVLKNMWPEGKLSITEVTKRPLTAATLFKNSMIALVDNLASKEPYYVRCIKPNDKKSPQIFDDERCRHQVEYLGLLENVRVRRAGFAFRQTYEKFLHRYKMISEFTWPNHDLPSDKEAVKKLIERCGFQDDVAYGKTKIFIRTPRTLFTLEELRAQMLIRIVLFLQKVWRGTLARMRYKRTKAALTIIRYYRRYKVKSYIHEVARRFHGVKTMRDYGKHVKWPSPPKVLRRFEEALQTIFNRWRASQLIKSIPASDLPQVRAKVAAVEMLKGQRADLGLQRAWEGNYLASKPDTPQTSGTFVPVANELKRKDKYMNVLFSCHVRKVNRFSKVEDRAIFVTDRHLYKMDPTKQYKVMKTIPLYNLTGLSVSNGKDQLVVFHTKDNKDLIVCLFSKQPTHESRIGELVGVLVNHFKSEKRHLQVNVTNPVQCSLHGKKCTVSVETRLNQPQPDFTKNRSGFILSVPGN

These are yes or no findings as the source states them, for the method shown. Binding seen in cells or lysates may run through a third protein. These calls come from enrichment with a bait or labelling near it, and not all partners need be listed.

The target in one assay is cyclin-dependent kinase (CDK) 7 (human) (UniProt P50613). Description: affinity purification with mass spectrometry + proximity labelling; bait-normalised prey PSM values of AP-MS and of BioID of the same MAC-tagged bait integrated to a relative distance between bait and prey.
As for B1, the binding result was “binds”.

A further assay addresses Proteasome subunit alpha type-1 (human) (UniProt P25786). Description: proximity labelling; BioID: MAC-tagged bait in stable Flp-In T-REx 293 cells, tetracycline and 50 uM biotin 24 h; lysis buffer 2 (as buffer 1 with 0.1% SDS), sonication, benzonase; biotinylated proteins on Strep-Tactin beads; LC-MS; SAINT and CRAPome filter.
As to MYO1B (from UniProt O43795 1-1136), the binding entry is listed as “binds”.

Regarding MYH10 (from UniProt P35580 1-1976), the binding result is reported as “binds”. The same measure, in the same setting: the same measure for MYH14 (from UniProt Q7Z406 1-1995): “binds”; for MYO6 (from UniProt Q9UM54 1-1294): “binds”; for B2: “binds”.
